# Source: the supplement of paper PMC8728848
# This is one part of the list.
# B1: Clec18A (Homo sapiens) (protein)
# chain: PFHTCDLRIDGDCFMVSSEADTYYRARMKCQRKGGVLAQIKRQKVQDILAFYLGRLETTNEVIDSDFETRNFWIGLTYKTAKDSFRWATGEHQAFTSFAFGQPDNHGFGNCVELQASAAFNWNDQRCKTRNRYICQ
# What was measured:
# Assay in all cases: glycan array binding signal (z-score within array); higher = stronger binding
# Conditions in all cases: glycan notation: IUPAC condensed, linker removed
# [1] = molecular target: Neu5Ac(a2-3)Gal(b1-3)GalNAc
# Method in brief: (§1)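 From the Consortium for Functional Glycomics database, 3228 arrays were curated, keeping only those whose protein sequence was available. Binding is given as a within-array Z-score averaged across arrays sharing a protein sequence and across linkers. Negative Z-scores can be read as non-binding.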
# [2] = molecular target: Neu5Ac(a2-3)Gal(b1-3)GalNAc(b1-3)Gal(a1-4)Gal(b1-4)Glc
# Method in brief: as §1
# [3] = molecular target: Neu5Ac(a2-3)Gal(b1-3)GalNAc(b1-4)[Neu5Ac(a2-3)]Gal(b1-4)Glc
# Method in brief: as §1
# [4] = molecular target: Neu5Ac(a2-3)Gal(b1-3)GalNAc(b1-4)[Neu5Ac(a2-8)Neu5Ac(a2-3)]Gal(b1-4)Glc
# Method in brief: as §1
# [5] = molecular target: Neu5Ac(a2-3)Gal(b1-3)GalNAc6S
# Method in brief: as §1
# [6] = molecular target: Neu5Ac(a2-3)Gal(b1-3)GlcNAc
# Method in brief: as §1
# [7] = molecular target: Neu5Ac(a2-3)Gal(b1-3)GlcNAc(b1-2)Man
# Method in brief: as §1
# [8] = molecular target: Neu5Ac(a2-3)Gal(b1-3)GlcNAc(b1-2)Man(a1-3)[GlcNAc(b1-4)][Neu5Ac(a2-3)Gal(b1-3)GlcNAc(b1-2)Man(a1-6)]Man(b1-4)GlcNAc(b1-4)GlcNAc
# Method in brief: as §1
# [9] = molecular target: Neu5Ac(a2-3)Gal(b1-3)GlcNAc(b1-2)Man(a1-3)[Neu5Ac(a2-3)Gal(b1-3)GlcNAc(b1-2)Man(a1-6)]Man(b1-4)GlcNAc(b1-4)GlcNAc
# Method in brief: as §1
# [10] = molecular target: Neu5Ac(a2-3)Gal(b1-3)GlcNAc(b1-3)Gal(b1-3)GlcNAc
# Method in brief: as §1
# [11] = molecular target: Neu5Ac(a2-3)Gal(b1-3)GlcNAc(b1-3)Gal(b1-4)GlcNAc
# Method in brief: as §1
# [12] = molecular target: Neu5Ac(a2-3)Gal(b1-3)GlcNAc(b1-3)GalNAc
# Method in brief: as §1
# [13] = molecular target: Neu5Ac(a2-3)Gal(b1-3)GlcNAc(b1-4)Gal(b1-4)Glc
# Method in brief: as §1
# [14] = molecular target: Neu5Ac(a2-3)Gal(b1-3)GlcNAc(b1-6)GalNAc
# Method in brief: as §1
# [15] = molecular target: Neu5Ac(a2-3)Gal(b1-3)GlcNAc6S
# Method in brief: as §1
# [16] = molecular target: Neu5Ac(a2-3)Gal(b1-3)[Fuc(a1-4)]GlcNAc
# Method in brief: as §1
# [17] = molecular target: Neu5Ac(a2-3)Gal(b1-3)[Fuc(a1-4)]GlcNAc(b1-3)Gal(b1-3)[Fuc(a1-4)]GlcNAc
# Method in brief: as §1
# [18] = molecular target: Neu5Ac(a2-3)Gal(b1-3)[Fuc(a1-4)]GlcNAc(b1-3)Gal(b1-4)[Fuc(a1-3)]GlcNAc
# Method in brief: as §1
# [19] = molecular target: Neu5Ac(a2-3)Gal(b1-3)[GlcNAc(b1-6)]GalNAc
# Method in brief: as §1
# [20] = molecular target: Neu5Ac(a2-3)Gal(b1-3)[Neu5Ac(a2-6)]GalNAc
# Method in brief: as §1
# [21] = molecular target: Neu5Ac(a2-3)Gal(b1-3)[Neu5Ac(a2-6)]GlcNAc(b1-3)[Fuc(a1-3)[Gal(b1-4)]GlcNAc(b1-6)]Gal(b1-4)Glc
# Method in brief: as §1
# [22] = molecular target: Neu5Ac(a2-3)Gal(b1-3)]Neu5Ac(a2-3)Gal(b1-4)]GlcNAc
# Method in brief: as §1
# Neu5Ac(a2-3)Gal(b1-4)Glc = molecular target: Neu5Ac(a2-3)Gal(b1-4)Glc
# Method in brief: as §1
# [23] = molecular target: Neu5Ac(a2-3)Gal(b1-4)GlcNAc
# Method in brief: as §1
# [24] = molecular target: Neu5Ac(a2-3)Gal(b1-4)GlcNAc(b1-2)Man
# Method in brief: as §1
# [25] = molecular target: Neu5Ac(a2-3)Gal(b1-4)GlcNAc(b1-2)Man(a1-3)[GlcNAc(b1-4)][Neu5Ac(a2-3)Gal(b1-4)GlcNAc(b1-2)Man(a1-6)]Man(b1-4)GlcNAc(b1-4)GlcNAc
# Method in brief: as §1
# [26] = molecular target: Neu5Ac(a2-3)Gal(b1-4)GlcNAc(b1-2)Man(a1-3)[Neu5Ac(a2-3)Gal(b1-4)GlcNAc(b1-2)Man(a1-6)]Man(b1-4)GlcNAc(b1-4)GlcNAc
# Method in brief: as §1
# [27] = molecular target: Neu5Ac(a2-3)Gal(b1-4)GlcNAc(b1-2)Man(a1-3)[Neu5Ac(a2-3)Gal(b1-4)GlcNAc(b1-2)Man(a1-6)]Man(b1-4)GlcNAc(b1-4)[Fuc(a1-6)]GlcNAc
# Method in brief: as §1
# [28] = molecular target: Neu5Ac(a2-3)Gal(b1-4)GlcNAc(b1-2)Man(a1-3)[Neu5Ac(a2-6)Gal(b1-4)GlcNAc(b1-2)Man(a1-6)]Man(b1-4)GlcNAc(b1-4)GlcNAc
# Method in brief: as §1
# [29] = molecular target: Neu5Ac(a2-3)Gal(b1-4)GlcNAc(b1-2)[Neu5Ac(a2-3)Gal(b1-4)GlcNAc(b1-4)]Man(a1-3)[GlcNAc(b1-4)][Neu5Ac(a2-3)Gal(b1-4)GlcNAc(b1-2)[Neu5Ac(a2-3)Gal(b1-4)GlcNAc(b1-6)]Man(a1-6)]Man(b1-4)GlcNAc(b1-4)GlcNAc
# Method in brief: as §1
# [30] = molecular target: Neu5Ac(a2-3)Gal(b1-4)GlcNAc(b1-2)[Neu5Ac(a2-3)Gal(b1-4)GlcNAc(b1-4)]Man(a1-3)[GlcNAc(b1-4)][Neu5Ac(a2-3)Gal(b1-4)GlcNAc(b1-4)Man(a1-6)]Man(b1-4)GlcNAc(b1-4)GlcNAc
# Method in brief: as §1
# [31] = molecular target: Neu5Ac(a2-3)Gal(b1-4)GlcNAc(b1-2)[Neu5Ac(a2-3)Gal(b1-4)GlcNAc(b1-6)]Man(a1-6)[Neu5Ac(a2-3)Gal(b1-4)GlcNAc(b1-2)Man(a1-3)]Man(b1-4)GlcNAc(b1-4)GlcNAc
# Method in brief: as §1
# [32] = molecular target: Neu5Ac(a2-3)Gal(b1-4)GlcNAc(b1-2)[Neu5Ac(a2-3)Gal(b1-4)GlcNAc(b1-6)]Man(a1-6)[Neu5Ac(a2-3)Gal(b1-4)GlcNAc(b1-2)Man(a1-3)][GlcNAc(b1-4)]Man(b1-4)GlcNAc(b1-4)GlcNAc
# Method in brief: as §1
# [33] = molecular target: Neu5Ac(a2-3)Gal(b1-4)GlcNAc(b1-3)Gal
# Method in brief: as §1
# [34] = molecular target: Neu5Ac(a2-3)Gal(b1-4)GlcNAc(b1-3)Gal(b1-3)GlcNAc
# Method in brief: as §1
# [35] = molecular target: Neu5Ac(a2-3)Gal(b1-4)GlcNAc(b1-3)Gal(b1-4)GlcNAc
# Method in brief: as §1
# [36] = molecular target: Neu5Ac(a2-3)Gal(b1-4)GlcNAc(b1-3)Gal(b1-4)GlcNAc(b1-2)Man(a1-3)[Neu5Ac(a2-3)Gal(b1-4)GlcNAc(b1-3)Gal(b1-4)GlcNAc(b1-2)Man(a1-6)]Man(b1-4)GlcNAc(b1-4)GlcNAc
# Method in brief: as §1
# [37] = molecular target: Neu5Ac(a2-3)Gal(b1-4)GlcNAc(b1-3)Gal(b1-4)GlcNAc(b1-3)Gal(b1-4)GlcNAc
# Method in brief: as §1
# [38] = molecular target: Neu5Ac(a2-3)Gal(b1-4)GlcNAc(b1-3)Gal(b1-4)GlcNAc(b1-3)Gal(b1-4)GlcNAc(b1-2)Man(a1-3)[Neu5Ac(a2-3)Gal(b1-4)GlcNAc(b1-3)Gal(b1-4)GlcNAc(b1-3)Gal(b1-4)GlcNAc(b1-2)Man(a1-6)]GalNAc
# Method in brief: as §1
# [39] = molecular target: Neu5Ac(a2-3)Gal(b1-4)GlcNAc(b1-3)Gal(b1-4)GlcNAc(b1-3)GalNAc
# Method in brief: as §1
# [40] = molecular target: Neu5Ac(a2-3)Gal(b1-4)GlcNAc(b1-3)Gal(b1-4)GlcNAc(b1-3)[Neu5Ac(a2-3)Gal(b1-4)GlcNAc(b1-3)Gal(b1-4)GlcNAc(b1-6)]GalNAc
# Method in brief: as §1
# [41] = molecular target: Neu5Ac(a2-3)Gal(b1-4)GlcNAc(b1-3)Gal(b1-4)GlcNAc(b1-6)[Gal(b1-3)]GalNAc
# Method in brief: as §1
# [42] = molecular target: Neu5Ac(a2-3)Gal(b1-4)GlcNAc(b1-3)Gal(b1-4)[Fuc(a1-3)]GlcNAc
# Method in brief: as §1
# [43] = molecular target: Neu5Ac(a2-3)Gal(b1-4)GlcNAc(b1-3)GalNAc
# Method in brief: as §1
# [44] = molecular target: Neu5Ac(a2-3)Gal(b1-4)GlcNAc(b1-3)[Neu5Ac(a2-3)Gal(b1-4)GlcNAc(b1-6)]GalNAc
# Method in brief: as §1
binder,measurement,setting,value
B1,glycan array binding signal (z-score),[1],-0.675
same,glycan array binding signal (z-score),[2],2.87
same,glycan array binding signal (z-score),[3],-0.742
same,glycan array binding signal (z-score),[4],-0.047
same,glycan array binding signal (z-score),[5],-0.925
same,glycan array binding signal (z-score),[6],-0.801
same,glycan array binding signal (z-score),[7],1.04
same,glycan array binding signal (z-score),[8],-0.098
same,glycan array binding signal (z-score),[9],-0.827
same,glycan array binding signal (z-score),[10],-0.819
same,glycan array binding signal (z-score),[11],0.065
same,glycan array binding signal (z-score),[12],-0.304
same,glycan array binding signal (z-score),[13],-0.859
same,glycan array binding signal (z-score),[14],-0.322
same,glycan array binding signal (z-score),[15],-0.553
same,glycan array binding signal (z-score),[16],-0.727
same,glycan array binding signal (z-score),[17],-0.623
same,glycan array binding signal (z-score),[18],-0.484
same,glycan array binding signal (z-score),[19],-0.725
same,glycan array binding signal (z-score),[20],-0.803
same,glycan array binding signal (z-score),[21],0.111
same,glycan array binding signal (z-score),[22],0.45
same,glycan array binding signal (z-score),Neu5Ac(a2-3)Gal(b1-4)Glc,-0.688
same,glycan array binding signal (z-score),[23],-0.878
same,glycan array binding signal (z-score),[24],0.243
same,glycan array binding signal (z-score),[25],-0.728
same,glycan array binding signal (z-score),[26],-0.481
same,glycan array binding signal (z-score),[27],-0.241
same,glycan array binding signal (z-score),[28],-0.398
same,glycan array binding signal (z-score),[29],-0.652
same,glycan array binding signal (z-score),[30],-0.566
same,glycan array binding signal (z-score),[31],0
same,glycan array binding signal (z-score),[32],-0.848
same,glycan array binding signal (z-score),[33],-0.85
same,glycan array binding signal (z-score),[34],-0.866
same,glycan array binding signal (z-score),[35],-0.852
same,glycan array binding signal (z-score),[36],-0.022
same,glycan array binding signal (z-score),[37],-0.761
same,glycan array binding signal (z-score),[38],0.057
same,glycan array binding signal (z-score),[39],-0.74
same,glycan array binding signal (z-score),[40],-0.569
same,glycan array binding signal (z-score),[41],0.247
same,glycan array binding signal (z-score),[42],-0.342
same,glycan array binding signal (z-score),[43],-0.727
same,glycan array binding signal (z-score),[44],-0.68
